According to US20110009345A1, “Food ingredient comprising functional peptide” (priority 2009, published 2011):

Test system: Sarcoma 180
Conditions: female Swiss-Webster mice, by gavage for eleven days, compared with control

SMILES: N=C(N)NCCC[C@H](NC(=O)[C@H](CO)NC(=O)CNC(=O)[C@@H](N)Cc1ccc(O)cc1)C(=O)N[C@@H](CO)C(=O)O [peptide, tyrosine-glycine-serine-arginine-serine]
- toxicity judged by increase of weight: nontoxic
